Our source for the binding values is article doi:10.1101/679431 (bioRxiv, 2019).

These are yes or no findings as the source states them, for the method shown. Some entries that bind do so weakly or less than the wild type. Tags and fused reporters may be left off the sequences shown.

The target in experiment [1] is WT TRAP1 with C-terminal HA tag (pcDNA3.1 (+) MTS-HA vector) (human) (UniProt Q12931). Kind of experiment: native gel or EMSA. On the technique in general: A gel shift assay detects complexes by their altered migration in electrophoresis.
Experiment [2] has as its target TRAP1 double point mutant E115A/R402A with C-terminal HA tag (human) (UniProt Q12931). Kind of experiment: native gel or EMSA.

B1: WT TRAP1 with C-terminal HA tag (pcDNA3.1 (+) MTS-HA vector) (protein, UniProt Q12931 60-704)
chain: STQTAEDKEEPLHSIISSTESVQGSTSKHEFQAETKKLLDIVARSLYSEKEVFIRELISNASDALEKLRHKLVSDGQALPEMEIHLQTNAEKGTITIQDTGIGMTQEELVSNLGTIARSGSKAFLDALQNQAEASSKIIGQFGVGFYSAFMVADRVEVYSRSAAPGSLGYQWLSDGSGVFEIAEASGVRTGTKIIIHLKSDCKEFSSEARVRDVVTKYSNFVSFPLYLNGRRMNTLQAIWMMDPKDVREWQHEEFYRYVAQAHDKPRYTLHYKTDAPLNIRSIFYVPDMKPSMFDVSRELGSSVALYSRKVLIQTKATDILPKWLRFIRGVVDSEDIPLNLSRELLQESALIRKLRDVLQQRLIKFFIDQSKKDAEKYAKFFEDYGLFMREGIVTATEQEVKEDIAKLLRYESSALPSGQLTSLSEYASRMRAGTRNIYYLCAPNRHLAEHSPYYEAMKKKDTEVLFCFEQFDELTLLHLREFDKKKLISVETDIVVDHYKEEKFEDRSPAAECLSEKETEELMAWMRNVLGSRVTNVKVTLRLDTHPAMVTVLEMGAARHFLRMQQLAKTQEERAQLLQPTLEINPRHALIKKLNQLRASEPGLAQLLVDQIYENAMIAAGLVDDPRAMVGRLNELLVKALERH
For the molecule B1, in experiment [1], the binding entry is on record as “binds”.

B2: TRAP1 double point mutant E115A/R402A with C-terminal HA tag (protein, UniProt Q12931 60-704)
chain: STQTAEDKEEPLHSIISSTESVQGSTSKHEFQAETKKLLDIVARSLYSEKEVFIRALISNASDALEKLRHKLVSDGQALPEMEIHLQTNAEKGTITIQDTGIGMTQEELVSNLGTIARSGSKAFLDALQNQAEASSKIIGQFGVGFYSAFMVADRVEVYSRSAAPGSLGYQWLSDGSGVFEIAEASGVRTGTKIIIHLKSDCKEFSSEARVRDVVTKYSNFVSFPLYLNGRRMNTLQAIWMMDPKDVREWQHEEFYRYVAQAHDKPRYTLHYKTDAPLNIRSIFYVPDMKPSMFDVSRELGSSVALYSRKVLIQTKATDILPKWLRFIRGVVDSEDIPLNLSAELLQESALIRKLRDVLQQRLIKFFIDQSKKDAEKYAKFFEDYGLFMREGIVTATEQEVKEDIAKLLRYESSALPSGQLTSLSEYASRMRAGTRNIYYLCAPNRHLAEHSPYYEAMKKKDTEVLFCFEQFDELTLLHLREFDKKKLISVETDIVVDHYKEEKFEDRSPAAECLSEKETEELMAWMRNVLGSRVTNVKVTLRLDTHPAMVTVLEMGAARHFLRMQQLAKTQEERAQLLQPTLEINPRHALIKKLNQLRASEPGLAQLLVDQIYENAMIAAGLVDDPRAMVGRLNELLVKALERH
On to B2, for which the binding result in experiment [2] is recorded as “binds”.
